Several values for one entry are separate records, joined by “and”; a condition that tells them apart may be missing. Identical values can stand only once. The whole screen tested about 580,000 compounds, of which about 6,100 (1.1%) were called active. Inconclusive results, whose numbers are uncertain, are shown with a selection of clear calls. Calls come from the whole dose curve; as a rule, active = well fitted inhibition curve with a large enough effect; inconclusive = small, poorly fitted or top-dose-only effect, or another doubt; inactive = no such curve, though single readings can be large or run the other way. A potency beside an inconclusive call is a rough fit, not a confirmed value.
target: Polyunsaturated fatty acid lipoxygenase ALOX12 (Homo sapiens) (UniProt P18054); test: Primary qHTS assay for inhibitors of human arachidonate 12S-lipoxygenase (ALOX12): Round 2; settings: purified 12hLO, xylenol orange hydroperoxide absorbance; activity change, negative = inhibition: at 108 µM (top of the series) unless noted
In short: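 Hydroperoxide product was detected by ferrous iron/xylenol orange as the 573 to 405 nm absorbance ratio. Arachidonic acid at 40 uM (final) was turned over for 30 min at room temperature by 150 nM human 12hLO, pH 7.0 Hepes buffer, after 15 min compound preincubation.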
% is set by controls: 0 for no effect and ±100 for the full control effect; potency is the fitted concentration of half-maximal effect.

Chains of the proteins cited; added tags and fusions are not shown.
UniProt P18054, whole entry, looked up: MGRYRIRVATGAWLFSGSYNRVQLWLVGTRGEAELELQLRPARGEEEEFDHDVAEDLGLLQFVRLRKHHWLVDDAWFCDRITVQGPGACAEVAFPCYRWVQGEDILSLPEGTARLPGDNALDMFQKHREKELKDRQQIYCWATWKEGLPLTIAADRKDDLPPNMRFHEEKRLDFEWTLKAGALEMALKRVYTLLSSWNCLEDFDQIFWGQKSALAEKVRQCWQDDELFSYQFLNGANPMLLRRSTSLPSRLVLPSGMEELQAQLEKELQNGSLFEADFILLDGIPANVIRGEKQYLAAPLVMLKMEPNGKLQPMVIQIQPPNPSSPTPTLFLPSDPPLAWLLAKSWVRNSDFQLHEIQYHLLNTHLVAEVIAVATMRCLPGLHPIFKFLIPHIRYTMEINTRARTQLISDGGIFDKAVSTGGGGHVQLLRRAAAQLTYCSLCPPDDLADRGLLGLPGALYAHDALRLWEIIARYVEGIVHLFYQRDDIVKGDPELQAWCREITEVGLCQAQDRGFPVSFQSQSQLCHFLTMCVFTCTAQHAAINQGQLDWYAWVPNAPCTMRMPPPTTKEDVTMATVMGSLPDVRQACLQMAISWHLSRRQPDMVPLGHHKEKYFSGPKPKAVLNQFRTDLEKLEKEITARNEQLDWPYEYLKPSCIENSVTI

Which Potency does the source give for `Cc1nc2cc(N)ccc2n1C1CCCCC1` here?
Its Potency is inconclusive: 39.8 µM [inhibitor, partial curve, poor fit].

How did the Potency turn out when `S=C(Nc1ccccc1)Nc1cccc(Br)c1` was run?
Its Potency is inconclusive: 50.1 µM [inhibitor, partial curve, poor fit].

`CC(=O)c1c(C)[nH]c(C(=O)Nc2cccc3ccccc23)c1C` was tested. Which Potency did it give?
The Potency was inconclusive: 100 µM [inhibitor, single point].

For `COc1cc(OC)c(-c2nn3c(C4CCCCC4)nnc3s2)cc1OC`, which Potency is on record?
The Potency was inconclusive: 50.1 µM [inhibitor, partial curve, poor fit].

`CC(=O)c1ccccc1OCCCCN1CCCCC1` was tested. Which Potency did it give?
The Potency was inconclusive: 0.501 µM [inhibitor, full curve, poor fit].

`COc1cccc(OC)c1OCC(C)CNCC1CCCO1` (stereo not given) was tested. Which Potency did it give?
Its Potency is inconclusive: 0.316 µM [inhibitor, full curve, poor fit].

For `O=C(O)c1ccc(-c2cccnc2)cc1`, which Potency is on record?
Its Potency is inconclusive: 17.8 µM [inhibitor, full curve].

For `Cc1nc2ccc(NC(=O)/C=C/C(=O)O)cc2nc1C`, which Potency is on record?
Its Potency is inconclusive: 39.8 µM [inhibitor, partial curve].

With `O=C(CN1C(=O)NC2(CCCCC2)C1=O)Nc1ccc2[nH]c(=O)[nH]c2c1` as the compound, how does the Potency read?
The Potency was inconclusive: 100 µM [inhibitor, single point].

For `COc1cc2c(cc1OC)CN(Cc1cc(=O)c(OCc3cccc(Cl)c3)co1)CC2`, which “activity change, negative = inhibition” value is on record?
The value was inactive: 2.49%.

Which Potency does the source give for `O=C(NCCC1=CCCCC1)C1CCN(S(=O)(=O)c2cnc[nH]2)CC1` here?
The Potency was inconclusive: 35.5 µM [inhibitor, single point].

For `Cc1nn2c(=O)cc(COC(=O)C(c3ccccc3)c3ccccc3)nc2s1`, which Potency is on record?
Its Potency is inconclusive: 141 µM [inhibitor, single point].

How did the “activity change, negative = inhibition” value turn out when `O=C(NC1CCN(Cc2ccccc2)CC1)c1cc2n(n1)CC(c1ccc3c(c1)OCO3)OC2` (stereo not given) was run?
The value was inactive: 25.4%.

Which “activity change, negative = inhibition” value does the source give for `CCOc1ccc(C(=O)N2CCC3(CC2)CC(O)CCO3)cc1` (stereo not given) here?
The value was inactive: 45.3%.

How did the Potency turn out when `Cc1ccc([C@H]2N[C@]3(CCCN(Cc4ccc(Br)cc4)C3=O)[C@H]3C(=O)N(Cc4ccccc4)C(=O)[C@@H]23)cc1` was run?
The Potency was inconclusive: 17.8 µM [inhibitor, partial curve].

`CCOC(=O)c1c(C)[nH]c(C(=O)NCCN2CCOCC2)c1C` was tested. Which Potency did it give?
The Potency was inconclusive: 35.5 µM [inhibitor, partial curve, poor fit].

How did the “activity change, negative = inhibition” value turn out when `Cc1ccc(SCC(=O)N(Cc2nc(-c3ccccc3)no2)C(C)C)cc1` was run?
The value was inactive: -22.8%.

Which Potency does the source give for `CC(C)Cn1c(S(=O)(=O)O)nc2ccccc21` here?
The Potency was inconclusive: 112 µM [inhibitor, single point].

`O=C(O)CCCC(=O)N1Cc2ccccc2CC2(CCCN(Cc3ccncc3)C2)C1` (stereo not given) was tested. Which Potency did it give?
The Potency was inconclusive: 8.91 µM [inhibitor, full curve, poor fit].

How did the Potency turn out when `CN[C@H](C)C(=O)NC[C@H]1O[C@@H](n2ccc(N)nc2=O)[C@H](O)[C@@H]1O` was run?
The Potency was inconclusive: 79.4 µM [inhibitor, single point].

Which “activity change, negative = inhibition” value does the source give for `Cn1c(C(=O)NCCNS(=O)(=O)c2cccs2)cc2ccccc21` here?
Its value is inactive: -48.1%.

Which “activity change, negative = inhibition” value does the source give for `Cc1ccc(C(=O)c2ccc(N3CCN(C)CC3)c([N+](=O)[O-])c2)cc1` here?
Its value is inactive: -21.1%.

How did the “activity change, negative = inhibition” value turn out when `C/C(=N/NC(=O)c1ccc(Br)o1)c1ccc(C)o1` was run?
The value was inactive: 1.51%.

Which Potency does the source give for `Cc1ccc(NC(=O)COC(=O)c2cc(=O)c3cc(F)ccc3o2)cc1` here?
Its Potency is inconclusive: 39.8 µM [inhibitor, partial curve, poor fit].

With `CC(C)C[C@H]1C(=O)N2CCC[C@@H]2[C@]2(O)O[C@](NC(=O)[C@@H]3C=C4c5cccc6[nH]c(Br)c(c56)C[C@H]4N(C)C3)(C(C)C)C(=O)N12` as the compound, how does the Potency read?
The Potency was inconclusive: 39.8 µM [inhibitor, single point].

How did the “activity change, negative = inhibition” value turn out when `O=C(N[C@H]1CCN2C(=O)c3ccccc3NC(=O)[C@@H]2C1)c1ccncc1` was run?
The value was inactive: 4.25% [at 176 µM].

Which “activity change, negative = inhibition” value does the source give for `Cc1ccccc1C(=O)NC(=S)Nc1cccc(NC(=O)C(C)C)c1` here?
Its value is inactive: -28.5%.

How did the Potency turn out when `Cc1c(C(=O)OC(C)C#N)oc2ccc(Cl)cc12` (stereo not given) was run?
Its Potency is inconclusive: 15.8 µM [inhibitor, partial curve].

`O=C(CSc1ncn(-c2ccccc2)n1)Nc1ccc2c(c1)OCCO2` was tested. Which Potency did it give?
The Potency was inconclusive: 35.5 µM [inhibitor, partial curve, poor fit].

How did the “activity change, negative = inhibition” value turn out when `Cc1nc(SCC(=O)NC(C)C(C)C)n(C2CCCC2)c1C` (stereo not given) was run?
Its value is inactive: 19%.

`COC(=O)c1ccccc1NC(=O)CN1C(=O)NC(c2ccc(C)cc2)C2=C1COC2=O` (stereo not given) was tested. Which Potency did it give?
The Potency was inconclusive: 28.2 µM [inhibitor, full curve].

Which “activity change, negative = inhibition” value does the source give for `CC(C)(C)Nc1nc2nonc2nc1NC(C)(C)C` here?
Its value is inactive: -6.17%.

How did the Potency turn out when `O=C(O)C1CN(CC2CC2)CCN(C(=O)c2cc(=O)[nH]o2)C1` (stereo not given) was run?
Its Potency is inconclusive: 3.55 µM [inhibitor, full curve].

With `Cc1ccc(NC(=O)N/C=C/c2ccccc2)cc1` as the compound, how does the “activity change, negative = inhibition” value read?
The value was inactive: 2.69%.

For `COc1ccc(C(=O)c2c(C(F)(F)F)oc3c2C(=O)c2ccccc2C3=O)cc1OC`, which “activity change, negative = inhibition” value is on record?
The value was inactive: 2.89%.

Which “activity change, negative = inhibition” value does the source give for `CCOC(=O)CN1C(=O)C(=O)c2cccc(C)c21` here?
The value was inactive: 10.6%.

For `Cc1cc(NO)c(C(C)C)cc1N=O`, which “activity change, negative = inhibition” value is on record?
Its value is inactive: -16.1%.

Which “activity change, negative = inhibition” value does the source give for `CCc1nc2c(c(-c3ccc(O)cc3)n1)CCN(Cc1ccsc1)CC2` here?
Its value is inactive: 4.33%.

Which “activity change, negative = inhibition” value does the source give for `NS(=O)(=O)c1ccc(CCNC(=O)c2cncc(Br)c2)cc1` here?
Its value is inactive: -29.1%.

Which Potency does the source give for `CC(C)C(=O)NC(=S)Nc1ccc(Cl)cc1` here?
Its Potency is inconclusive: 50.1 µM [inhibitor, partial curve, poor fit].

`O=c1[nH][nH]c2c1C(c1ccc(Cl)c(Cl)c1)OC(CCc1ccccc1)C2` (stereo not given) was tested. Which Potency did it give?
The Potency was inconclusive: 35.5 µM [inhibitor, partial curve].

`O=C(COC(=O)C12CC3CC(CC(Cl)(C3)C1)C2)NC(=O)c1cccc([N+](=O)[O-])c1` was tested. Which Potency did it give?
Its Potency is inconclusive: 28.2 µM [inhibitor, partial curve].

Which Potency does the source give for `COCCN1C(=O)/C(=C/c2ccc(OCc3ccc(C(=O)O)cc3)c(OC)c2)SC1=Nc1ccccc1` here?
The Potency was inconclusive: 89.1 µM [inhibitor, partial curve, poor fit].

Which Potency does the source give for `CCO[C@H]1OC(C(=O)N2CCN(Cc3ccc4c(c3)OCO4)CC2)=C[C@@H](c2ccccc2)[C@@H]1CCCO` here?
The Potency was inconclusive: 141 µM [inhibitor, partial curve, poor fit].

How did the Potency turn out when `O=[N+]([O-])c1ccc(CN2CCC(Cc3ccccc3)CC2)cc1` was run?
The Potency was inconclusive: 5.01 µM [inhibitor, full curve, poor fit].

For `CC(CC(=O)NCc1ccc(Cl)cc1Cl)CC1=NS(=O)(=O)c2ccccc2N1` (stereo not given), which Potency is on record?
The Potency was inconclusive: 50.1 µM [inhibitor, partial curve, poor fit].

For `Cc1cccc(OCCNc2cc(N3CCOCC3)ccc2[N+](=O)[O-])c1`, which “activity change, negative = inhibition” value is on record?
The value was inactive: 20.8%.

With `c1ccc(-c2ccc(N3CCCC4(CCNCC4)C3)cc2)cc1` as the compound, how does the Potency read?
The Potency was inconclusive: 28.2 µM [inhibitor, partial curve, poor fit].

`O=C1C=C(c2ccc(C(=O)O)cc2)C[C@@H](c2ccc3c(c2)OCO3)C1` was tested. Which Potency did it give?
Its Potency is inconclusive: 35.5 µM [inhibitor, partial curve].

How did the “activity change, negative = inhibition” value turn out when `O=C(NCC1CCCO1)c1ccc(NS(=O)(=O)c2cccs2)cc1` (stereo not given) was run?
The value was inactive: 2.39%.

For `COc1ccc(-c2cc(NCCO)nc3[nH]ccc23)cc1C(F)(F)F`, which Potency is on record?
Its Potency is inconclusive: 70.8 µM [inhibitor, partial curve].

With `COc1cc(C(=O)NCC2COc3ccccc3O2)cc(OC)c1C` (stereo not given) as the compound, how does the Potency read?
The Potency was inconclusive: 39.8 µM [inhibitor, partial curve, poor fit].

How did the “activity change, negative = inhibition” value turn out when `CN(C)C(=O)c1cccnc1OC1CCN(C(=O)CC2CCCCC2)C1` (stereo not given) was run?
Its value is inactive: 7.33%.

`O=c1oc2c(O)c(O)cc3c(=O)oc4c(O)c(O)cc1c4c23` was tested. Which Potency did it give?
The Potency was inconclusive: 700 nM [inhibitor, full curve] and inconclusive: 7.7 nM [inhibitor, full curve, poor fit].

With `CC(C)NC(=O)N(C)C[C@H]1Oc2ccc(NC(=O)Cc3ccccc3)cc2C(=O)N([C@H](C)CO)C[C@@H]1C` as the compound, how does the Potency read?
The Potency was inconclusive: 28.2 µM [inhibitor, single point].

Which Potency does the source give for `COc1cc2c(cc1OC)n(CC(=O)Nc1ccccc1)c(=O)n1nc(-c3ccccc3)nc21` here?
Its Potency is inconclusive: 44.7 µM [inhibitor, partial curve, poor fit].

For `Cc1ccc(-c2cc(C(=O)N(C)CC(=O)Nc3ccccc3Br)c3ccccc3n2)o1`, which Potency is on record?
Its Potency is inconclusive: 50.1 µM [inhibitor, partial curve, poor fit].

Which Potency does the source give for `CC(=O)OC(COC1C[C@@H]2CC[C@@]1(C)C2(C)C)C[N+]1(C)CCCCC1` (stereo not given in full) here?
Its Potency is inconclusive: 50.1 µM [inhibitor, partial curve, poor fit].

How did the Potency turn out when `O=C(Cc1c[nH]c2ccccc12)OCc1ccc(Cl)cc1Cl` was run?
The Potency was inconclusive: 44.7 µM [inhibitor, partial curve, poor fit].

How did the Potency turn out when `O=C1CSC(c2ccccn2)N1c1ccc2ccccc2c1` (stereo not given) was run?
Its Potency is inconclusive: 158 µM [inhibitor, partial curve, poor fit].

How did the Potency turn out when `Cc1[nH]c2ccccc2c1C1c2ccccc2C(=O)N1CCC(C)C` (stereo not given) was run?
The Potency was inconclusive: 50.1 µM [inhibitor, partial curve, poor fit].

`CCCCn1c(SCC(=O)OCC)nnc1-c1ccoc1C` was tested. Which Potency did it give?
The Potency was inconclusive: 50.1 µM [inhibitor, partial curve, poor fit].

Which Potency does the source give for `COCc1ccc(C(=O)Nc2cccc(C)c2C)cc1` here?
Its Potency is inconclusive: 56.2 µM [inhibitor, partial curve, poor fit].

With `Cc1ccnc(NC(=S)NC(=O)c2ccco2)c1` as the compound, how does the Potency read?
The Potency was inconclusive: 1.58 µM [inhibitor, full curve, poor fit].

How did the Potency turn out when `C[C@H](CO)N1C[C@H](C)[C@@H](CN(C)S(=O)(=O)c2ccccc2)Oc2ccc(NS(=O)(=O)c3ccc(F)cc3)cc2C1=O` was run?
The Potency was inconclusive: 44.7 µM [inhibitor, partial curve, poor fit].

Source: PubChem BioAssay AID1671190 (National Center for Advancing Translational Sciences (NCATS), 2021)
